{"source": "patent US8859730", "about": "(dated 2014)", "key": {"[1]": {"assay": "general procedure: Fmoc solid-phase peptide synthesis; Fmoc-Gly-NovaSyn TGT resin"}, "[2]": {"assay": "general procedure: Fmoc solid-phase peptide synthesis; Fmoc-Ser(tBu)-NovaSyn TGT resin", "details": "whole synthesis"}}}
{"substance": "Fmoc-Arg-Ala-Ser-Ile-Thr-Thr-Ala-Asp-Gly-O-salicylaldehyde ester", "values": [{"measurement": "step yield", "setting": "[1]; late stage modification step", "value": 54, "unit": "%"}]}
{"substance": "H-Cys(S-t-Bu)-His-Cys(Acm)-Ser-Thr-Cys(Acm)-Tyr-Tyr-His-Lys-Ser-OH", "values": [{"measurement": "isolated yield", "setting": "[2]", "value": 70, "unit": "% yield"}]}
{"substance": "H-Ser-Ala-Gln-Lys-Arg-His-Phe-Gly-Ala-SPh", "values": [{"measurement": "step yield", "setting": "[1]; coupling step", "value": 53, "unit": "%"}]}
